Reference: PMC7196074
No constants are given. Whether binding was seen depends on the method and setting. Binding seen in cells or lysates may run through a third protein. Binding can be weak; no strength is given. Sequences can lack the tags named with a protein.

Assays:
[1] = target: T1, FLAG-FFL-Aub (Drosophila) (UniProt O76922); experiment: co-IP; LUMIER (quantitative luminescence-based coIP): FLAG-FFL-Aub and HA-RL fusions transiently expressed in S2R+ cells; lysates in HNTG buffer on plates coated with anti-FLAG, 3 h on ice; Renilla and Firefly luciferase activities read; control without antibody
T1 sequence: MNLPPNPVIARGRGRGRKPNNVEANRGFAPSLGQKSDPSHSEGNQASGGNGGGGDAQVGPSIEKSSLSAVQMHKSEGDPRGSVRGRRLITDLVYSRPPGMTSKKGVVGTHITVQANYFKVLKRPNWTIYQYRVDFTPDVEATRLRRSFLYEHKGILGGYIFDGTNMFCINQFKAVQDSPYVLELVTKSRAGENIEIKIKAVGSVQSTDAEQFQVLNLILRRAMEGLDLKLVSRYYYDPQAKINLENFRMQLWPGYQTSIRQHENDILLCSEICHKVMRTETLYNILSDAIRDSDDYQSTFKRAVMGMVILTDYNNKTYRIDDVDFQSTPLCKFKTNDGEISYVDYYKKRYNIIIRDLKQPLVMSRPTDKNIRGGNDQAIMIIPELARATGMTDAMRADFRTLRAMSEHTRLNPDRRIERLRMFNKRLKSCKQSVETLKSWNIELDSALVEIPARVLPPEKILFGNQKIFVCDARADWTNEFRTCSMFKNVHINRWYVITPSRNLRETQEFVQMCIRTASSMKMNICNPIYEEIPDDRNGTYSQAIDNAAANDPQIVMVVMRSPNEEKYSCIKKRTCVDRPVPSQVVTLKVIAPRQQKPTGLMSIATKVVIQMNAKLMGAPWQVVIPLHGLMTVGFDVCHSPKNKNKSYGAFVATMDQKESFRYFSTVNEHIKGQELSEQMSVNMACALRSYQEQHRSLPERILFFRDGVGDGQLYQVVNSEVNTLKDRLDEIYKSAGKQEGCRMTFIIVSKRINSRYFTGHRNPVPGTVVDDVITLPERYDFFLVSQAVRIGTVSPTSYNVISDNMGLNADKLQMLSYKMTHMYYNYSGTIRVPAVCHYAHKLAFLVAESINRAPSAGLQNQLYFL

[2] = target: T2, GFP-Aub (Aubergine) (Drosophila) (UniProt O76922); experiment: co-IP; as a3 but extracts with RNase A (40 U/µL); IP with anti-GFP, anti-HA or anti-PABP; western blot
T2 sequence: T1 sequence

[3] = target: T2, GFP-Aub (Aubergine) (Drosophila); experiment: co-IP; 0-2 h embryo extracts in IP buffer (20 mM Tris pH 7.5, 150 mM NaCl, 0.2% NP-40) with RNase inhibitor; IP with anti-GFP, anti-HA or anti-PABP, 2.5 h at 4 °C; western blot

Row | Substance | binding [1] | binding [2] | binding [3]
1 | HA-RL-eIF3f (Drosophila) | no binding | – | –
2 | HA-RL-eIF4E (Drosophila) | binds | – | –
3 | HA-eIF3d (Drosophila) | – | binds | binds

Next, values leading:

Row | binding [1] | binding [2] | binding [3] | Substance
4 | binds | – | – | HA-RL-eIF3d (Drosophila)
5 | binds | – | – | HA-RL-eIF3g (Drosophila)
